According to patent US20160289313A1:
No constants are given. Whether binding was seen depends on the method and setting. Some entries that bind do so weakly or less than the wild type.

Amino acid sequences for entries named in this document (tags omitted). A change or cut given only in a name is not applied to a line headed by its entry. Chains listed by the source or under a name are the forms on record and can include a tag or linker.
recombinant canine VEGF protein (Q9MYV3, form named): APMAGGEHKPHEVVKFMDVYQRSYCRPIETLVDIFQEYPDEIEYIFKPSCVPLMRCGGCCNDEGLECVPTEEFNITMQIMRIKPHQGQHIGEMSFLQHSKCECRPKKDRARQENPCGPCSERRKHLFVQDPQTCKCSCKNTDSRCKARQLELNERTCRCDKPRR

Molecular target: recombinant canine VEGF protein (canine) (UniProt Q9MYV3)
Assay: ELISA screening of hybridoma clones, first on mammalian cell-produced and then on E. coli-produced canine VEGF; mAb 57C was selected from the positive clones

B1: anti-canine VEGF antibody mAb 57C (antibody, V domains shown)
VH: QVQLQQSGAELMKPGASVKISCKATGYTFSSYWIEWVKQRPGHGLEWIGEIFPGGGDPKYNENFKGKATFTTDASSNTAYMQLSSLTSEDSAVYYCARGTFGFYAMDYWGQGTSVTVSS
VL: DAVMTQTPLSLPVSLGDQVSISCRSSQSLENSNGNTYLNWYLQKPGQSPQLLIYRVSNRFSGVLDRFSGSGSGTDFTLKISRVEAEDLGVYFCLQVTHVPYTFGGGTKLEIKR
  binding: binds
